HELM strings list residues between dots; [ac] is acetyl, [am] amide, other brackets name non-standard units.

Our source for the step yield values is patent US4596790A (Nyegaard & Co. A/S, priority 1983, dated 1986).

The nature of this series: general procedure: solution-phase peptide synthesis.

For PEPTIDE1{[pGlu].Q.D.G}$$$$V2.0, under “late stage modification step”, the step yield stood at 74%.

For Z-L-pGlu-L-Gln-L-Asp(β-OBzl)-Gly-OBzl, the step yield (coupling step) is on record as 73%.
